Data on one molecule can be found in publication PMC8724010.

The chains behind the UniProt entries cited, without tags or fusion partners.
UniProt O00255: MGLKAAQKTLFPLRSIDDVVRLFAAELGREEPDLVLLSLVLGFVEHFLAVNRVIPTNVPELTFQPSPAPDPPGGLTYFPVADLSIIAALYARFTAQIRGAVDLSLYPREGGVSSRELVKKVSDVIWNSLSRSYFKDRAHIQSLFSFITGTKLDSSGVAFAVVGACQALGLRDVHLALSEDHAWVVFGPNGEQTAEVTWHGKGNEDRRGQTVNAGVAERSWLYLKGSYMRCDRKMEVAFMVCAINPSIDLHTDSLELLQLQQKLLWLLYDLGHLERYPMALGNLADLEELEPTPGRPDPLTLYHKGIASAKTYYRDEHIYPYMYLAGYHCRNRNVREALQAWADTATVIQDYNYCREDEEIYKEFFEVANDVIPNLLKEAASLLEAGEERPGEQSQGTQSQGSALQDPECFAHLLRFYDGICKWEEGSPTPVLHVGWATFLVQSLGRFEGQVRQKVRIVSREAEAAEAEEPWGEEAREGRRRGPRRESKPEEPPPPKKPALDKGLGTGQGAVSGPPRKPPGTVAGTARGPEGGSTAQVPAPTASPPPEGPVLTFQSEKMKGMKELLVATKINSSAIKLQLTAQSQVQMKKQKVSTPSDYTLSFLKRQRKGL

No constants are given. Whether binding was seen depends on the method and setting. Binding seen in cells or lysates may run through a third protein. These calls come from enrichment with a bait or labelling near it, and not all partners need be listed.

This assay addresses Menin (human (endogenous in LNCaP, PNT1A, PC-3)) (UniProt O00255). Briefly: affinity purification with mass spectrometry; IP-MS of Menin from PNT1A, LNCaP and PC-3 cells; IP in triplicate, three technical replications of MS.

B1: SNW Domain Containing 1 (protein, UniProt Q13573 1-536)
chain: MALTSFLPAPTQLSQDQLEAEEKARSQRSRQTSLVSSRREPPPYGYRKGWIPRLLEDFGDGGAFPEIHVAQYPLDMGRKKKMSNALAIQVDSEGKIKYDAIARQGQSKDKVIYSKYTDLVPKEVMNADDPDLQRPDEEAIKEITEKTRVALEKSVSQKVAAAMPVRAADKLAPAQYIRYTPSQQGVAFNSGAKQRVIRMVEMQKDPMEPPRFKINKKIPRGPPSPPAPVMHSPSRKMTVKEQQEWKIPPCISNWKNAKGYTIPLDKRLAADGRGLQTVHINENFAKLAEALYIADRKAREAVEMRAQVERKMAQKEKEKHEEKLREMAQKARERRAGIKTHVEKEDGEARERDEIRHDRRKERQHDRNLSRAAPDKRSKLQRNENRDISEVIALGVPNPRTSNEVQYDQRLFNQSKGMDSGFAGGEDEIYNVYDQAWRGGKDMAQSIYRPSKNLDKDMYGDDLEARIKTNRFVPDKEFSGSDRRQRGREGPVQFEEDPFGLDKFLEEAKQHGGSKRPSDSSRPKEHEHEGKKRRKE
As for B1, the binding result was “binds”.
